PubChem BioAssay AID1671190 (National Center for Advancing Translational Sciences (NCATS), 2021)
Hit rate of the full screen: of about 580,000 compounds, about 6,100 (1.1%) were called active. Inconclusive means that the source gave no clear call. Such entries were picked first, then a sample of the others. The call rests on the fitted dose curve; in most records, active means well fitted inhibition curve with a large enough effect; inconclusive means small, poorly fitted or top-dose-only effect, or another doubt; inactive means no such curve, though single readings can be large or run the other way. Potencies of inconclusive entries are doubtful fits and often do not repeat.

Protein sequences, listed by entry. Tags and fused reporters are not part of them. Lines headed by an entry give the natural chain unless they say otherwise; changes in a name come on top.
UniProt P18054: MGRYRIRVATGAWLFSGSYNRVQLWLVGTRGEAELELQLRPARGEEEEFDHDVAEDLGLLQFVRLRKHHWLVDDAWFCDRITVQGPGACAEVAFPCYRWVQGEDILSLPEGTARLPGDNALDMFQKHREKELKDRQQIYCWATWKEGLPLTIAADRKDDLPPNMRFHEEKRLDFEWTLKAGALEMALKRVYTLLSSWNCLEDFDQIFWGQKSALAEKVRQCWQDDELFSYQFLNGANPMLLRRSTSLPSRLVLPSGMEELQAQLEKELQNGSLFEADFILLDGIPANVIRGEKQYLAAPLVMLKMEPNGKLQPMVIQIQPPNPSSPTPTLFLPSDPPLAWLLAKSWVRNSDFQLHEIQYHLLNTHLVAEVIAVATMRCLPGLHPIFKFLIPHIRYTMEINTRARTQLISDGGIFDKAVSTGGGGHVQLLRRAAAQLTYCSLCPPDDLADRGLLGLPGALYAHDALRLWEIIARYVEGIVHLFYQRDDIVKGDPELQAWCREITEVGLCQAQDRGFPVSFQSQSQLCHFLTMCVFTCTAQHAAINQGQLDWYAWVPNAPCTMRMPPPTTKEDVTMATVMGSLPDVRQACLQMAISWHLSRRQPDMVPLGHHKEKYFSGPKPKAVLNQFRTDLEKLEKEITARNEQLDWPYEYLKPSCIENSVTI

Molecular target: Polyunsaturated fatty acid lipoxygenase ALOX12 (Homo sapiens) (UniProt P18054)
Assay: Primary qHTS assay for inhibitors of human arachidonate 12S-lipoxygenase (ALOX12): Round 2
Conditions: purified 12hLO, xylenol orange hydroperoxide absorbance; activity change, negative = inhibition: at 108 µM (top of the series) unless noted
Outline: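 Purified human 12hLO (150 nM final) in 25 mM Hepes, 0.01% Triton X-100, pH 7.0 was preincubated 15 min at room temperature with compound. Then 40 uM arachidonic acid was added, 30 min. Hydroperoxide was read by Fe-XO absorbance ratio 573/405 nm.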
On the % scale 0 is the no-effect control and ±100 the full control effect; potency means the concentration at half of the fitted maximal effect.

SMILES | Potency | activity change, negative = inhibition
CSc1ncc(C(=O)N2CCN(c3ccc(F)cc3)CC2)c(C)n1 | inactive | 
O=C(CNCC1CCCO1)Nc1ccccc1-n1cccc1 (stereo not given) | inconclusive: 0.224 µM [inhibitor, full curve, poor fit] | 
CCC(C)(C)NC(=O)Nc1cc(Cl)ccc1OC | inactive | 
O=C(c1cccs1)n1nc(-c2ccccc2)nc1NCc1ccc(F)cc1 | inactive | 
CC(S)C(=O)NCC(=O)O (stereo not given) | inconclusive: 4.85 µM [inhibitor, full curve] | 
COc1ccccc1CCNC(=O)Cn1ccc2cc(S(=O)(=O)N3CCCCCC3)ccc21 | inactive | 
CC(C)c1cccc(-c2nc3c(NCc4cccc(N(C)C)c4)nccc3[nH]2)c1 | inconclusive: 50.1 µM [inhibitor, partial curve, poor fit] | 
CCCC(C(=O)NCc1ccccn1)c1ccccc1 (stereo not given) | inactive | 
CC(CO)(CO)NC(=O)c1ccc(C#Cc2cccc(F)c2)cn1 | inactive | 
N#Cc1cc(C(=O)c2cc(F)ccc2O)cn(C2CC2)c1=O | inconclusive: 11.2 µM [inhibitor, partial curve, poor fit] | 
COc1ccc(C(=O)N2CCC(n3cc(-c4nc(C)no4)nn3)C2)cc1F (stereo not given) | inconclusive: 50.1 µM [inhibitor, partial curve] | 
Cc1ncsc1C(=O)N1CCC2(CC1)OC(=O)N(Cc1cccnc1)C2(C)c1ccccc1 (stereo not given) | inactive | 
COc1ccc(/C=C/c2nn3c(-c4ccc5c(c4)OCO5)nnc3s2)cc1 | inconclusive: 35.5 µM [inhibitor, single point] | 
CCOc1ccc(OCc2cccc(C(=O)O)c2)cc1 | inconclusive: 56.2 µM [inhibitor, single point] | 
CN1CC2(CCN(C(=O)c3ccccc3-c3nn[nH]n3)CC2)CC1C(=O)O (stereo not given) | inconclusive: 2.24 µM [inhibitor, full curve] | 
COCCn1nc2cc(C(=O)NCc3cc(C(F)(F)F)cc(C(F)(F)F)c3)ccc2c1OC | inconclusive: 50.1 µM [inhibitor, partial curve, poor fit] | 
COCCN1C(=O)c2cccn2CC1CNC(=O)C1=C(C)C(=O)OC12CCCCC2 (stereo not given) | inactive | 
CC(C)C(=O)Nc1cccc(NC(=S)NC(=O)c2ccccc2Cl)c1 | inactive | 
Cc1cc(=O)oc2cc(OCC(=O)NCC3(N4CCCCC4)CCCCC3)ccc12 | inactive | 
COCCNS(=O)(=O)c1cc(C(=O)O)cc(-c2cccc(C(C)N(C)C)c2)c1 (stereo not given) | inactive | 
COc1ccccc1NS(=O)(=O)c1cc(N)ccc1N1CCOCC1 | inconclusive: 44.7 µM [inhibitor, partial curve, poor fit] | 
Cc1ccc(S(=O)(=O)N2C[C@]3(O)C[C@@H]4C(=O)N(c5ccccc5)C(=O)[C@@H]4C[C@]3(OC(=O)NC3CC3)C2)cc1 | inconclusive: 15.8 µM [inhibitor, partial curve, poor fit] | 
O=C(/C=C/c1ccco1)c1cccs1 | inconclusive: 5.01 µM [inhibitor, full curve, poor fit] | 

SMILES | Potency | activity change, negative = inhibition
CCOC(=O)c1cc2n(n1)CC(C)(C(=O)NC1CCC(C)CC1)N(CCc1cccs1)C2=O (stereo not given) | inconclusive: 31.6 µM [inhibitor, partial curve, poor fit] | 
O=C(Nc1ccn(CCCNC2CCN(Cc3ccccc3)CC2)c(=O)n1)OCc1ccccc1 | inactive | 
CCOC(=O)[C@H]1[C@H]2COc3ccc(Cl)cc3[C@@H]2N2C(=O)c3cc(Br)ccc3NC(=O)[C@@]12C | inconclusive: 100 µM [inhibitor, single point] | 
CCn1c(C)nc2cc(S(N)(=O)=O)ccc21 | inactive | 
O=C(COc1cccnc1[N+](=O)[O-])N1CCN(S(=O)(=O)c2ccc3ccccc3c2)CC1 | inconclusive: 3.55 µM [inhibitor, full curve, poor fit] | 
O=[S+]([O-])(c1ccccc1)N1CC(Oc2ccc(F)cc2F)C1 |  | inactive: 3.72% [at 6.33 µM]
CC1CCN(S(=O)(=O)c2ccc3nc(NC4CCCCCC4)ccc3c2)CC1 | inconclusive: 31.6 µM [inhibitor, partial curve, poor fit] | 
COc1ccc(N2CCN(c3cc(C)c4ccc(O)cc4n3)CC2)cc1 | inconclusive: 3.55 µM [inhibitor, full curve, poor fit] | 
O=C(Cc1nc2ccccc2[nH]1)c1ccc(Cl)cc1 | inconclusive: 50.1 µM [inhibitor, partial curve, poor fit] | 
CCSc1nc2c(c(=O)[nH]c(=O)n2C)n1CC(O)COc1ccc(Cl)cc1 (stereo not given) | inactive | 
Cc1ccc(NC(=S)NCc2ccccc2Cl)c(C)c1 | inconclusive: 56.2 µM [inhibitor, partial curve, poor fit] | 
CCNc1nc(C23CC4CC(CC(C4)C2)C3)cs1 | inconclusive: 31.6 µM [inhibitor, partial curve] | 
CC[n+]1cc(-c2ccccc2)nc(N2CCOCC2)n1 | inconclusive: 7.94 µM [inhibitor, partial curve, poor fit] | 
CC1(c2ccco2)NC(=O)NC1=O (stereo not given) | inactive | 
COc1ccc(N2CCN(C(=O)c3ccc4c(c3)CCN4S(C)(=O)=O)CC2)cc1 | inconclusive: 100 µM [inhibitor, partial curve, poor fit] | 
CC1=C(C(=O)N2CCOCC2)C(c2cc(Br)ccc2F)C2=C(CC(C)(C)CC2=O)N1 (stereo not given) | inactive | 
Cc1noc([C@@H]2CN(Cc3cc(F)cc(F)c3)C[C@H]2CO)n1 | inactive | 
COC(=O)C(Cc1ccccc1)NC(=S)NC(=O)c1ccccc1 (stereo not given) | inconclusive: 44.7 µM [inhibitor, partial curve] | 
COc1ccc(Cn2c(O)c(C=Nc3ccc(O)cc3)c3ccccc3c2=O)cc1 | inactive | 
Cc1ccc(C)c(S(=O)(=O)c2nnn3c2nc(Nc2ccc(F)c(Cl)c2)c2sccc23)c1 | inactive | 
O=C(C1=C(O)C(=O)N(Cc2ccco2)C1c1ccccc1)c1cccs1 (stereo not given) | inconclusive: 25.1 µM [inhibitor, partial curve, poor fit] | 
N#Cc1cc(-c2ccccc2)nn1-c1ccccc1 | inconclusive: 5.01 µM [inhibitor, full curve, poor fit] | 

Reformatted: results already given.
O=C(C1=C(O)C(=O)N(Cc2ccco2)C1c1ccccc1)c1cccs1 (stereo not given)
  Potency: inconclusive: 25.1 µM [inhibitor, partial curve, poor fit]
N#Cc1cc(-c2ccccc2)nn1-c1ccccc1
  Potency: inconclusive: 5.01 µM [inhibitor, full curve, poor fit]
